To fix the notation:
B1: Golgin subfamily A member 3 (protein, UniProt Q08378 1-1498)
chain: MDGASAEQDGLQEDRSHSGPSSLPEAPLKPPGPLVPPDQQDKVQCAEVNRASTEGESPDGPGQGGLCQNGPTPPFPDPPSSLDPTTSPVGPDASPGVAGFHDNLRKSQGTSAEGSVRKEALQSLRLSLPMQETQLCSTDSPLPLEKEEQVRLQARKWLEEQLKQYRVKRQQERSSQPATKTRLFSTLDPELMLNPENLPRASTLAMTKEYSFLRTSVPRGPKVGSLGLPAHPREKKTSKSSKIRSLADYRTEDSNAGNSGGNVPAPDSTKGSLKQNRSSAASVVSEISLSPDTDDRLENTSLAGDSVSEVDGNDSDSSSYSSASTRGTYGILSKTVGTQDTPYMVNGQEIPADTLGQFPSIKDVLQAAAAEHQDQGQEVNGEVRSRRDSICSSVSLESSAAETQEEMLQVLKEKMRLEGQLEALSLEASQALKEKAELQAQLAALSTKLQAQVECSHSSQQRQDSLSSEVDTLKQSCWDLERAMTDLQNMLEAKNASLASSNNDLQVAEEQYQRLMAKVEDMQRSMLSKDNTVHDLRQQMTALQSQLQQVQLERTTLTSKLKASQAEISSLQSVRQWYQQQLALAQEARVRLQGEMAHIQVGQMTQAGLLEHLKLENVSLSQQLTETQHRSMKEKGRIAAQLQGIEADMLDQEAAFMQIQEAKTMVEEDLQRRLEEFEGERERLQRMADSAASLEQQLEQVKLTLLQRDQQLEALQQEHLDLMKQLTLTQEALQSREQSLDALQTHYDELQARLGELQGEAASREDTICLLQNEKIILEAALQAAKSGKEELDRGARRLEEGTEETSETLEKLREELAIKSGQVEHLQQETAALKKQMQKIKEQFLQQKVMVEAYRRDATSKDQLISELKATRKRLDSELKELRQELMQVHGEKRTAEAELSRLHREVAQVRQHMADLEGHLQSAQKERDEMETHLQSLQFDKEQMVAVTEANEALKKQIEELQQEARKAITEQKQKMRRLGSDLTSAQKEMKTKHKAYENAVGILSRRLQEALAAKEAADAELGQLRAQGGSSDSSLALHERIQALEAELQAVSHSKTLLEKELQEVIALTSQELEESREKVLELEDELQESRGFRKKIKRLEESNKKLALELEHEKGKLTGLGQSNAALREHNSILETALAKREADLVQLNLQVQAVLQRKEEEDRQMKHLVQALQASLEKEKEKVNSLKEQVAAAKVEAGHNRRHFKAASLELSEVKKELQAKEHLVQKLQAEADDLQIREGKHSQEIAQFQAELAEARAQLQLLQKQLDEQLSKQPVGNQEMENLKWEVDQKEREIQSLKQQLDLTEQQGRKELEGLQQLLQNVKSELEMAQEDLSMTQKDKFMLQAKVSELKNNMKTLLQQNQQLKLDLRRGAAKTRKEPKGEASSSNPATPIKIPDCPVPASLLEELLRPPPAVSKEPLKNLNSCLQQLKQEMDSLQRQMEEHALTVHESLSSWTPLEPATASPVPPGGHAGPRGDPQRHSQSRASKEGPGE
B2: Myb-binding protein 1A (protein, UniProt Q9BQG0 1-1328)
chain: MESRDPAQPMSPGEATQSGARPADRYGLLKHSREFLDFFWDIAKPEQETRLAATEKLLEYLRGRPKGSEMKYALKRLITGLGVGRETARPCYSLALAQLLQSFEDLPLCSILQQIQEKYDLHQVKKAMLRPALFANLFGVLALFQSGRLVKDQEALMKSVKLLQALAQYQNHLQEQPRKALVDILSEVSKATLQEILPEVLKADLNIILSSPEQLELFLLAQQKVPSKLKKLVGSVNLFSDENVPRLVNVLKMAASSVKKDRKLPAIALDLLRLALKEDKFPRFWKEVVEQGLLKMQFWPASYLCFRLLGAALPLLTKEQLHLVMQGDVIRHYGEHVCTAKLPKQFKFAPEMDDYVGTFLEGCQDDPERQLAVLVAFSSVTNQGLPVTPTFWRVVRFLSPPALQGYVAWLRAMFLQPDLDSLVDFSTNNQKKAQDSSLHMPERAVFRLRKWIIFRLVSIVDSLHLEMEEALTEQVARFCLFHSFFVTKKPTSQIPETKHPFSFPLENQAREAVSSAFFSLLQTLSTQFKQAPGQTQGGQPWTYHLVQFADLLLNHSHNVTTVTPFTAQQRQAWDRMLQTLKELEAHSAEARAAAFQHLLLLVGIHLLKSPAESCDLLGDIQTCIRKSLGEKPRRSRTKTIDPQEPPWVEVLVEILLALLAQPSHLMRQVARSVFGHICSHLTPRALQLILDVLNPETSEDENDRVVVTDDSDERRLKGAEDKSEEGEDNRSSESEEESEGEESEEEERDGDVDQGFREQLMTVLQAGKALGGEDSENEEELGDEAMMALDQSLASLFAEQKLRIQARRDEKNKLQKEKALRRDFQIRVLDLVEVLVTKQPENALVLELLEPLLSIIRRSLRSSSSKQEQDLLHKTARIFTHHLCRARRYCHDLGERAGALHAQVERLVQQAGRQPDSPTALYHFNASLYLLRVLKGNTAEGCVHETQEKQKAGTDPSHMPTGPQAASCLDLNLVTRVYSTALSSFLTKRNSPLTVPMFLSLFSRHPVLCQSLLPILVQHITGPVRPRHQACLLLQKTLSMREVRSCFEDPEWKQLMGQVLAKVTENLRVLGEAQTKAQHQQALSSLELLNVLFRTCKHEKLTLDLTVLLGVLQGQQQSLQQGAHSTGSSRLHDLYWQAMKTLGVQRPKLEKKDAKEIPSATQSPISKKRKKKGFLPETKKRKKRKSEDGTPAEDGTPAATGGSQPPSMGRKKRNRTKAKVPAQANGTPTTKSPAPGAPTRSPSTPAKSPKLQKKNQKPSQVNGAPGSPTEPAGQKQHQKALPKKGVLGKSPLSALARKKARLSLVIRSPSLLQSGAKKKAQVRKAGKP
B3: GEMIN8 (protein, UniProt Q9NWZ8 1-242)
chain: MAAVKASTSKATRPWYSHPVYARYWQHYHQAMAWMQSHHNAYRKAVESCFNLPWYLPSALLPQSSYDNEAAYPQSFYDHHVAWQDYPCSSSHFRRSGQHPRYSSRIQASTKEDQALSKEEEMETESDAEVECDLSNMEITEELRQYFAETERHREERRRQQQLDAERLDSYVNADHDLYCNTRRSVEAPTERPGERRQAEMKRLYGDSAAKIQAMEAAVQLSFDKHCDRKQPKYWPVIPLKF
B4: Thyroid hormone receptor-associated protein 3 (protein, UniProt Q9Y2W1 1-955)
chain: MSKTNKSKSGSRSSRSRSASRSRSRSFSKSRSRSRSLSRSRKRRLSSRSRSRSYSPAHNRERNHPRVYQNRDFRGHNRGYRRPYYFRGRNRGFYPWGQYNRGGYGNYRSNWQNYRQAYSPRRGRSRSRSPKRRSPSPRSRSHSRNSDKSSSDRSRRSSSSRSSSNHSRVESSKRKSAKEKKSSSKDSRPSQAAGDNQGDEAKEQTFSGGTSQDTKASESSKPWPDATYGTGSASRASAVSELSPRERSPALKSPLQSVVVRRRSPRPSPVPKPSPPLSSTSQMGSTLPSGAGYQSGTHQGQFDHGSGSLSPSKKSPVGKSPPSTGSTYGSSQKEESAASGGAAYTKRYLEEQKTENGKDKEQKQTNTDKEKIKEKGSFSDTGLGDGKMKSDSFAPKTDSEKPFRGSQSPKRYKLRDDFEKKMADFHKEEMDDQDKDKAKGRKESEFDDEPKFMSKVIGANKNQEEEKSGKWEGLVYAPPGKEKQRKTEELEEESFPERSKKEDRGKRSEGGHRGFVPEKNFRVTAYKAVQEKSSSPPPRKTSESRDKLGAKGDFPTGKSSFSITREAQVNVRMDSFDEDLARPSGLLAQERKLCRDLVHSNKKEQEFRSIFQHIQSAQSQRSPSELFAQHIVTIVHHVKEHHFGSSGMTLHERFTKYLKRGTEQEAAKNKKSPEIHRRIDISPSTFRKHGLAHDEMKSPREPGYKAEGKYKDDPVDLRLDIERRKKHKERDLKRGKSRESVDSRDSSHSRERSAEKTEKTHKGSKKQKKHRRARDRSRSSSSSSQSSHSYKAEEYTEETEEREESTTGFDKSRLGTKDFVGPSERGGGRARGTFQFRARGRGWGRGNYSGNNNNNSNNDFQKRNREEEWDPEYTPKSKKYYLHDDREGEGSDKWVSRGRGRGAFPRGRGRFMFRKSSTSPKWAHDKFSGEEGEIEDDESGTENREEKDNIQPTTE
B5: Phosphoribosyl pyrophosphate synthase-associated protein 2 (protein, UniProt O60256 1-369)
chain: MFCVTPPELETKMNITKGGLVLFSANSNSSCMELSKKIAERLGVEMGKVQVYQEPNRETRVQIQESVRGKDVFIIQTVSKDVNTTIMELLIMVYACKTSCAKSIIGVIPYFPYSKQCKMRKRGSIVSKLLASMMCKAGLTHLITMDLHQKEIQGFFNIPVDNLRASPFLLQYIQEEIPDYRNAVIVAKSPASAKRAQSFAERLRLGIAVIHGEAQDAESDLVDGRHSPPMVRSVAAIHPSLEIPMLIPKEKPPITVVGDVGGRIAIIVDDIIDDVDSFLAAAETLKERGAYKIFVMATHGLLSSDAPRRIEESAIDEVVVTNTIPHEVQKLQCPKIKTVDISMILSEAIRRIHNGESMSYLFRNIGLDD

Sequences of proteins named here, by UniProt entry; tags and fusion partners are left off. Residues count along the entry.
UniProt O96028, residues 782-1365: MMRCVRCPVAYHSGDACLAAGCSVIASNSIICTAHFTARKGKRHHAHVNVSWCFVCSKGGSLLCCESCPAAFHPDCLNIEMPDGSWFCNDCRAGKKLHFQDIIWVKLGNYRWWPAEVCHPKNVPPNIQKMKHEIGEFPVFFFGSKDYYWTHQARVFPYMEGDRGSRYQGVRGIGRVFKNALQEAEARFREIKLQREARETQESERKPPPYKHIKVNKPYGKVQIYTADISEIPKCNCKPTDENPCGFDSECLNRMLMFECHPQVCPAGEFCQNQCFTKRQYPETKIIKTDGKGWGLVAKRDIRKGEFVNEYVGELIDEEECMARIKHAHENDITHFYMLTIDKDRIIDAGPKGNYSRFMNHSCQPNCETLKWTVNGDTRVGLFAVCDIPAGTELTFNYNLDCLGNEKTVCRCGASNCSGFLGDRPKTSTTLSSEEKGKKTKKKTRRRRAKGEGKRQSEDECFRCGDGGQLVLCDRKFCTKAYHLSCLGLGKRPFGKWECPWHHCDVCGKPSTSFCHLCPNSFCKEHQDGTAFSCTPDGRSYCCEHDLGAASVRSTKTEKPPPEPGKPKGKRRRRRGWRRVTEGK
UniProt O75592: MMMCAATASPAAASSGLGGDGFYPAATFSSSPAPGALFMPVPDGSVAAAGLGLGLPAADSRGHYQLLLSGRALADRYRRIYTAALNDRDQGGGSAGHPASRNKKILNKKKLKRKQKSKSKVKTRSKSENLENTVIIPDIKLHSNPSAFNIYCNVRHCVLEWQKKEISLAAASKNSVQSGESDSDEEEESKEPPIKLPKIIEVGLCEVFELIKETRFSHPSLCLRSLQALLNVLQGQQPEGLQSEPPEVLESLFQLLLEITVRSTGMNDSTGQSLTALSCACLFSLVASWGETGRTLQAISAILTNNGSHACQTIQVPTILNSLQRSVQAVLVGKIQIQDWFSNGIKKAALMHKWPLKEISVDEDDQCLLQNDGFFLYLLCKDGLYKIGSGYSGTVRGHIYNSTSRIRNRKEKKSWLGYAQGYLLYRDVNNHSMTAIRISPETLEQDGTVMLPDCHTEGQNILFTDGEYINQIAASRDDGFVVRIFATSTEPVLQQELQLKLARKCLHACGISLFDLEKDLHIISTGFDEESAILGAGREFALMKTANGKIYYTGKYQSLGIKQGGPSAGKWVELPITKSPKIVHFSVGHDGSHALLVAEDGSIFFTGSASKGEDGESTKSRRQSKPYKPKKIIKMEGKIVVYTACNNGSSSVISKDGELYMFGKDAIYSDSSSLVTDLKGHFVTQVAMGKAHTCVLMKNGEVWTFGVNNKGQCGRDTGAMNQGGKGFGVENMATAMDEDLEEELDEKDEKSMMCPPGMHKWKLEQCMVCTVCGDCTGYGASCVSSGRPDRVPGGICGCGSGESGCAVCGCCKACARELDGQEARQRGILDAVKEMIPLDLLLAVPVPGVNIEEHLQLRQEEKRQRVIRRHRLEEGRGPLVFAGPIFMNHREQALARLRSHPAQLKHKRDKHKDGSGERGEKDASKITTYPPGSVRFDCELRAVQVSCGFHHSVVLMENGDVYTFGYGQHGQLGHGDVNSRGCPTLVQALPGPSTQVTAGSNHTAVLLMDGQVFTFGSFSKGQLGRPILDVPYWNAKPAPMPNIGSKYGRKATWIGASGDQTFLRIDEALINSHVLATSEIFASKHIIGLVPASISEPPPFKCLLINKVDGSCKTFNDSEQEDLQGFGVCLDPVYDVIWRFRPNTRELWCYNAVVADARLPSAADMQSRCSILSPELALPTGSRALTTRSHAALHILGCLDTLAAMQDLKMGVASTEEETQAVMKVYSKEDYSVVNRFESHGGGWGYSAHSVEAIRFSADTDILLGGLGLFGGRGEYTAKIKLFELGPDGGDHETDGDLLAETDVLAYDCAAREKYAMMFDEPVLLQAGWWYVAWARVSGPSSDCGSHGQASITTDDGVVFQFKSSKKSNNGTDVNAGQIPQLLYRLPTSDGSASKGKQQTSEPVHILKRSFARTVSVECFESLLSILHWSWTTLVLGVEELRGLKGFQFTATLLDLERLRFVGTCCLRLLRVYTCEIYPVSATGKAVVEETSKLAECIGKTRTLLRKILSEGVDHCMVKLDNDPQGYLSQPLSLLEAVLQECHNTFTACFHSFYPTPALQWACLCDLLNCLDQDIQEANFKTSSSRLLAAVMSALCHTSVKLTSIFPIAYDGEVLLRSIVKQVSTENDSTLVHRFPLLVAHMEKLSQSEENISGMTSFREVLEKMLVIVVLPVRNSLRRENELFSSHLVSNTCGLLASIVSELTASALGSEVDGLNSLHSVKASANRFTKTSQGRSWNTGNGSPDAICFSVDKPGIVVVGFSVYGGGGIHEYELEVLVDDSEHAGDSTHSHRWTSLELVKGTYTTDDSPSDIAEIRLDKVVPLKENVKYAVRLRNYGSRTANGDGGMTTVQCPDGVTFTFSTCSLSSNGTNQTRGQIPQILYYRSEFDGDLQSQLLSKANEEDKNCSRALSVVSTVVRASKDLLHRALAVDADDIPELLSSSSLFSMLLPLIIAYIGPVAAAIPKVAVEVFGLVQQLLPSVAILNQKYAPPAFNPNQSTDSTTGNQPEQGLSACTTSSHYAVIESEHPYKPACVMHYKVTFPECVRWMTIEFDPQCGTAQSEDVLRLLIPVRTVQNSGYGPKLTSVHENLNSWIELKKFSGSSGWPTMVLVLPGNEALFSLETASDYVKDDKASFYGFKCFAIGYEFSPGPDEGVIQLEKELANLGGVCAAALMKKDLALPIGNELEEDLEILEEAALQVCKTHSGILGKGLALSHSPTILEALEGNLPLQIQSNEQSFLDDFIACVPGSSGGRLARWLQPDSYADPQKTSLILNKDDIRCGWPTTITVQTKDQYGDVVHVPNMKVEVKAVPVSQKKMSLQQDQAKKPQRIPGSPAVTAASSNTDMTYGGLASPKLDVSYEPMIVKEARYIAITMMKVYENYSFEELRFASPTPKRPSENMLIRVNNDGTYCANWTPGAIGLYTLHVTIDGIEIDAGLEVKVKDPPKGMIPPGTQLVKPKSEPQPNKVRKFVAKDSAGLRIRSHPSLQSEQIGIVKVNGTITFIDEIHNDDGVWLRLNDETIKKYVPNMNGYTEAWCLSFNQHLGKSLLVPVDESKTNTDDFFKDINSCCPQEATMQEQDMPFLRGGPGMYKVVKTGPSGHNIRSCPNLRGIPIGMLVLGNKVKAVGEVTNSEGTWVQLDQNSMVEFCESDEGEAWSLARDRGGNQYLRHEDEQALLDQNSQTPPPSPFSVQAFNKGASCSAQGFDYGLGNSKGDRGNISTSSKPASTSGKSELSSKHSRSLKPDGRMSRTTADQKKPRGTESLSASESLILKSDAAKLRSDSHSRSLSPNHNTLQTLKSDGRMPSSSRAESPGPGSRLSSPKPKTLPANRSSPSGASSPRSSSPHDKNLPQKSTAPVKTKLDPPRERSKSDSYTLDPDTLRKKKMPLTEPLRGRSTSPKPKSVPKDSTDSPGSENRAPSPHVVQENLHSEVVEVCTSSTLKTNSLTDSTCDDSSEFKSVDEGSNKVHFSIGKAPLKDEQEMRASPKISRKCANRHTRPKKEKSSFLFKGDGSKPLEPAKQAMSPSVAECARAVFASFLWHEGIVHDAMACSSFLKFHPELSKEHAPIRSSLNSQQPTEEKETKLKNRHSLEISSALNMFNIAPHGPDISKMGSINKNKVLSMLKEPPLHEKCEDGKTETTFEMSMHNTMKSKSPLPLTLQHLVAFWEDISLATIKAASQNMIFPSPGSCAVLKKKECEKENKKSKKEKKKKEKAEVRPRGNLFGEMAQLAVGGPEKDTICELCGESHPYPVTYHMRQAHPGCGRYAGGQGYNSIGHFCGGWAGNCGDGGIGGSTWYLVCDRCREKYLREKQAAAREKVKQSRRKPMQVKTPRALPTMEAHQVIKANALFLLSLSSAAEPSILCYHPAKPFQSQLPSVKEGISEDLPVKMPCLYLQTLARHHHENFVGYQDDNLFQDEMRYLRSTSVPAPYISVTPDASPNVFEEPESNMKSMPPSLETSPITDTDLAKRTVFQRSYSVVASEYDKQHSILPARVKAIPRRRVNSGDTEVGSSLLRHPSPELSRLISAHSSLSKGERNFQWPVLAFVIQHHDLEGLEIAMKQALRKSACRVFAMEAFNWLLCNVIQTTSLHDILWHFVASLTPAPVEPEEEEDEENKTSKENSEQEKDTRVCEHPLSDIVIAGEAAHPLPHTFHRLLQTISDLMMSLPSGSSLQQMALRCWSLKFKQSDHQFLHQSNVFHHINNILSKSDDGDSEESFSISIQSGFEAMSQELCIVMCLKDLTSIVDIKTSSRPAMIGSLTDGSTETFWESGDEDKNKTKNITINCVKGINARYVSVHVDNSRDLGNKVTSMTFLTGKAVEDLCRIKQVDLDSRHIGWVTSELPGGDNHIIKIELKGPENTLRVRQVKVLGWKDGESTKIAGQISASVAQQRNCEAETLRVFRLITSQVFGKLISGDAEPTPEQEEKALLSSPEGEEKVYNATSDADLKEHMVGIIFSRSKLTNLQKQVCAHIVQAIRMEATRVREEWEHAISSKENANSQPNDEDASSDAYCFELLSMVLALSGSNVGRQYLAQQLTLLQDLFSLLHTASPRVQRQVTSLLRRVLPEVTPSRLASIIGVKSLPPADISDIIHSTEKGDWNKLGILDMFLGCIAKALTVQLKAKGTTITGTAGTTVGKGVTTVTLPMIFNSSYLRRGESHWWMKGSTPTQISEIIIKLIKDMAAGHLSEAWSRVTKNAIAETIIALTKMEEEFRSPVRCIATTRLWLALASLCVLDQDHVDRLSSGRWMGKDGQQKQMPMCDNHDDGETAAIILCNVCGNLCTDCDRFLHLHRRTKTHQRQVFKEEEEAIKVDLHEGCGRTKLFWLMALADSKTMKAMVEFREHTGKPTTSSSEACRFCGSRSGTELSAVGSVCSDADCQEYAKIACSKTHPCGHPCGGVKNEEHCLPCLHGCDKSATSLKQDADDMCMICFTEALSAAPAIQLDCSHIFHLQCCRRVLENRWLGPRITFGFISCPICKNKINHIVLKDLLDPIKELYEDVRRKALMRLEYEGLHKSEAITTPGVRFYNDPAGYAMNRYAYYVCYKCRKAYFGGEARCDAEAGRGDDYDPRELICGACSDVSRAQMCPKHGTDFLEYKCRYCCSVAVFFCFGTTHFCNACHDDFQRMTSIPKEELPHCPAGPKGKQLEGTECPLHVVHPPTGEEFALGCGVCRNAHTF
UniProt Q9H840: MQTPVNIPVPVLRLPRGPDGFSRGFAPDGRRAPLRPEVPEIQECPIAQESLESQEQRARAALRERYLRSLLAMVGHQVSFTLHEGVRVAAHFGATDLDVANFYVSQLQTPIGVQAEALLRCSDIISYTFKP
UniProt P52732: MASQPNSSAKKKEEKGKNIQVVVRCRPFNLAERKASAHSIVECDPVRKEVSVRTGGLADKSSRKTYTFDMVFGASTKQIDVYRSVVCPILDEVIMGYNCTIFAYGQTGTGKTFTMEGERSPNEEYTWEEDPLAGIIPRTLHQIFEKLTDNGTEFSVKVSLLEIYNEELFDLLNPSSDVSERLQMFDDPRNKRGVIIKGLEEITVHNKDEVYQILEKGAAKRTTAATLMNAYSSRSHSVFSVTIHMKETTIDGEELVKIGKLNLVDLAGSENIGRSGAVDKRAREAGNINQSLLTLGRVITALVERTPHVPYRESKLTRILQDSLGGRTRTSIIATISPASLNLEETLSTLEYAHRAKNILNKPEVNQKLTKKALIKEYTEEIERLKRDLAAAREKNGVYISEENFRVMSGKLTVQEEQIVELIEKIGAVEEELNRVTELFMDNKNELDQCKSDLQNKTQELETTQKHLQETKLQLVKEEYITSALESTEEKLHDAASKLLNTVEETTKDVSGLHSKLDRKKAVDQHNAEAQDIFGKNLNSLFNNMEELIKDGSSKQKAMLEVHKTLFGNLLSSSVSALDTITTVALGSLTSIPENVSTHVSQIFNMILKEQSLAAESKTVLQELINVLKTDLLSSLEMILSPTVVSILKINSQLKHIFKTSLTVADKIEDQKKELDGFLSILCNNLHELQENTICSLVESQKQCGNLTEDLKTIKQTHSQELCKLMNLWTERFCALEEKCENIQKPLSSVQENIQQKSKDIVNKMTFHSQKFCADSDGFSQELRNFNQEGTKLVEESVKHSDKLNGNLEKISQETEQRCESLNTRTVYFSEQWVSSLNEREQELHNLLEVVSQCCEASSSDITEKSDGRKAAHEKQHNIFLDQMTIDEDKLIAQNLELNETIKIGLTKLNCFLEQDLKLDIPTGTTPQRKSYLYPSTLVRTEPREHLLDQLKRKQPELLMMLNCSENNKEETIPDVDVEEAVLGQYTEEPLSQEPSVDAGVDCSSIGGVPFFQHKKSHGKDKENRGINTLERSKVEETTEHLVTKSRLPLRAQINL

Results are given in words; binding and its absence hold for the method and conditions named. In cells and extracts the contact can be indirect. A yes stands for co-enrichment or nearness to the bait. Other partners may have been found.

In this assay the target is REIIBP Flag HIS construct (UniProt O96028). As to the kind of experiment: affinity purification with mass spectrometry; tandem affinity purification from H929::REIIBP lysate (untouched H929 as control): M2 anti-FLAG resin, 4°C, 1 hour, washes with 300 mM NaCl, elution with 3×FLAG peptide, then NiNTA agarose, elution with 250 mM imidazole; SDS-PAGE gel sections, LC-MS/MS; at least 10 fold enrichment in spectral counts for Table 1.
SF3B3 (from UniProt Q15393 1-1217): the binding result is listed as “binds”.
Regarding “Protein Daple (from UniProt Q9P219 1-2028)”, the binding entry is “binds”.
For “Probable E3 ubiquitin-protein ligase MYCBP2 (from UniProt O75592 1-4678)” the value was “binds”; for “Methylosome protein 50 (from UniProt Q9BQA1 1-342)”, “binds”; for “RNA-binding protein 10 (from UniProt P98175 1-930)”, “binds”.
For GEMIN6 (from UniProt Q8WXD5 1-167) the value was “binds”; for GEMIN7 (from UniProt Q9H840 1-131), “binds”; for GEMIN2 (from UniProt O14893 1-280), “binds”.
For “Component of gems 4 (from UniProt P57678 1-1058)” the value was “binds”; for “Kinesin-like protein KIF11 (from UniProt P52732 1-1056)”, “binds”; for “Probable ATP-dependent RNA helicase DDX20 (from UniProt Q9UHI6 1-824)”, “binds”.
Regarding “Tyrosine-protein phosphatase non-receptor type 13 (from UniProt Q12923 1-2485)”, the binding entry is listed as “binds”.
For U2SURP (from UniProt O15042 1-1029) the value was “binds”.
For “Survival motor neuron protein (from UniProt Q16637 1-294)” the value was “binds”.
Then “Microtubule-associated protein 1B (from UniProt P46821 1-2468)”, with “binds”.
Turning to “Gem-associated protein 5 (from UniProt Q8TEQ6 1-1508)”, the binding result is “binds”.
For B1 the value was “binds”; for B2, “binds”; for B3, “binds”.
For B4 the value was “binds”.
For B5 the value was “binds”.

Source of the values: publication PMC4055699.
